Test results: article PMC10339035
Results are given in words; binding and its absence hold for the method and conditions named. In cells and extracts the contact can be indirect. Here binding means that the protein was enriched with, or labelled near, the bait; the list need not be complete. For some assays here: Where a sequence is shown, tags or fusion partners need not be part of it.

Sequences of proteins named here, by UniProt entry; tags and fusion partners are left off.
UniProt Q5T9C2: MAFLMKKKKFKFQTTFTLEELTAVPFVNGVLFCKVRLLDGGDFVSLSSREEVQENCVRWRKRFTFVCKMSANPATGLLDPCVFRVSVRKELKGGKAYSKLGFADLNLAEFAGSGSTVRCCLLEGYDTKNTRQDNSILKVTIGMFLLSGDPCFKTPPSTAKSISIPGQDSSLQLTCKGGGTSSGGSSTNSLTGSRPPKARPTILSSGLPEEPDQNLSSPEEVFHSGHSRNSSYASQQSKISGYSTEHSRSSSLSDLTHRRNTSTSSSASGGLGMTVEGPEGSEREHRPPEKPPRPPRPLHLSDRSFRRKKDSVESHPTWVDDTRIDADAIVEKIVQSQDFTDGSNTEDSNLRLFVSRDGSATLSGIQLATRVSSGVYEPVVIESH
UniProt P62491: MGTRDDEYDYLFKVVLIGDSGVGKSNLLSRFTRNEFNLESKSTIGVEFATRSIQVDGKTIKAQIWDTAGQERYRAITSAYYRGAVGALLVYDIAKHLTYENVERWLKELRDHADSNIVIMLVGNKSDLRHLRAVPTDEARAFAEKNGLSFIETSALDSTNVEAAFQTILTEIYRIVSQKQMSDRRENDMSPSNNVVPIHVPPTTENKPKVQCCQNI
UniProt Q99961: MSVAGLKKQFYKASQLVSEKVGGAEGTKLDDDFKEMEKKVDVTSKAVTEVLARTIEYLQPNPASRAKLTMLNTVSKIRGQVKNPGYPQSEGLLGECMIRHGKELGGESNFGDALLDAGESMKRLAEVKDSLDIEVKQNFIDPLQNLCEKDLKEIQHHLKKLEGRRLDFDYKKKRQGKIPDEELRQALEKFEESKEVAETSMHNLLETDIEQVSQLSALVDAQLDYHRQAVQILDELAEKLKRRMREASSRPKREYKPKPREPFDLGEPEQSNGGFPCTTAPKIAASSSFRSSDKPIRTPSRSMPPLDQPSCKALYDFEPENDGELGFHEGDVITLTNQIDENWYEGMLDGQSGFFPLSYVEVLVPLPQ
UniProt Q99962: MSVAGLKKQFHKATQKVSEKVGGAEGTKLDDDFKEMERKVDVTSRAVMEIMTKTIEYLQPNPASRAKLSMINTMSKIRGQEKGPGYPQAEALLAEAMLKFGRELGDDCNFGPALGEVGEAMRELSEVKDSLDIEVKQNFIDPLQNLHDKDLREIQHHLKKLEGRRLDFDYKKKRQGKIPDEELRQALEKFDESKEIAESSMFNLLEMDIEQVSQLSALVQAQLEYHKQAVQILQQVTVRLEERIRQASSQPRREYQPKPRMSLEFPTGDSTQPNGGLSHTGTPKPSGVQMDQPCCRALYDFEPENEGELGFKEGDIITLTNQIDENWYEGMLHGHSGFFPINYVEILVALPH

B1: WDR44 (protein, UniProt Q5JSH3 1-913)
chain: MASESDTEEFYDAPEDVHLGGGYPVGSPGKVGLSTFKETENTAYKVGNESPVQELKQDVSKKIIESIIEESQKVLQLEDDSLDSKGKELSDQATASPIVARTDLSNIPGLLAIDQVLPEESQKAESQNTFEETELELKKCFPSDETCEKPVDETTKLTQTSSTEQLNVLETETEVLNKEAVEVKGGGDVLEPVSSDSLSTKDFAAVEEVAPAKPPRHLTPEPDIVASTKKPVPARPPPPTNFPPPRPPPPSRPAPPPRKRKSELEFETLKTPDIDVPKENITSDSLLTASMASESTVKDSQPSLDLASATSGDKIVTAQENGKAPDGQTVAGEVMGPQRPRSNSGRELTDEEILASVMIKNLDTGEEIPLSLAEEKLPTGINPLTLHIMRRTKEYVSNDAAQSDDEEKLQSQPTDTDGGRLKQKTTQLKKFLGKSVKRAKHLAEEYGERAINKVKSVRDEVFHTDQDDPSSSDDEGMPYTRPVKFKAAHGFKGPYDFDQIKVVQDLSGEHMGAVWTMKFSHCGRLLASAGQDNVVRIWALKNAFDYFNNMRMKYNTEGRVSPSPSQESLSSSKSDTDTGVCSGTDEDPDDKNAPFRQRPFCKYKGHTADLLDLSWSKNYFLLSSSMDKTVRLWHISRRECLCCFQHIDFVTAIAFHPRDDRYFLSGSLDGKLRLWNIPDKKVALWNEVDGQTKLITAANFCQNGKYAVIGTYDGRCIFYDTEHLKYHTQIHVRSTRGRNKVGRKITGIEPLPGENKILVTSNDSRIRLYDLRDLSLSMKYKGYVNSSSQIKASFSHDFTYLVSGSEDKYVYIWSTYHDLSKFTSVRRDRNDFWEGIKAHNAVVTSAIFAPNPSLMLSLDVQSEKSEGNEKSEDAEVLDATPSGIMKTDNTEVLLSADFTGAIKVFVNKRKNVS

Legend:
[1] = biological target: T1, WDR44::GFP (human) (UniProt Q5JSH3); assay: affinity purification with mass spectrometry; GFP-tagged bait in lysate of transfected HeLa cells (50 mM Tris pH 7.5, 150 mM NaCl, 1% NP-40) captured on anti-GFP nanobody magnetic beads, 2 h at 4°C; washes with 300 mM NaCl, 1% NP-40; LC-MS-MS; two independent experiments for each bait with a GFP-only control; filter: at least 3 spectral counts and bait to control ratio of 5 or more
T1 sequence: B1 chain

[2] = biological target: FAM102A::GFP (human) (UniProt Q5T9C2); assay: as above

| Molecule | binding [1] | binding [2] |
| --- | --- | --- |
| FAM102A (from UniProt Q5T9C2 1-384) | binds | – |
| RAB11A (from UniProt P62491 1-216) | binds | – |
| SH3GL1 (from UniProt Q99961 1-368) | – | binds |
| SH3GL2 (from UniProt Q99962 1-352) | – | binds |
| B1 | – | binds |
